Measurements reported in paper PMC7316825.
These are yes or no findings as the source states them, for the method shown. In cells and extracts the contact can be indirect. These calls come from enrichment with a bait or labelling near it, and not all partners need be listed.

By UniProt entry, the sequences of proteins in these tests, tags left out.
UniProt Q07065: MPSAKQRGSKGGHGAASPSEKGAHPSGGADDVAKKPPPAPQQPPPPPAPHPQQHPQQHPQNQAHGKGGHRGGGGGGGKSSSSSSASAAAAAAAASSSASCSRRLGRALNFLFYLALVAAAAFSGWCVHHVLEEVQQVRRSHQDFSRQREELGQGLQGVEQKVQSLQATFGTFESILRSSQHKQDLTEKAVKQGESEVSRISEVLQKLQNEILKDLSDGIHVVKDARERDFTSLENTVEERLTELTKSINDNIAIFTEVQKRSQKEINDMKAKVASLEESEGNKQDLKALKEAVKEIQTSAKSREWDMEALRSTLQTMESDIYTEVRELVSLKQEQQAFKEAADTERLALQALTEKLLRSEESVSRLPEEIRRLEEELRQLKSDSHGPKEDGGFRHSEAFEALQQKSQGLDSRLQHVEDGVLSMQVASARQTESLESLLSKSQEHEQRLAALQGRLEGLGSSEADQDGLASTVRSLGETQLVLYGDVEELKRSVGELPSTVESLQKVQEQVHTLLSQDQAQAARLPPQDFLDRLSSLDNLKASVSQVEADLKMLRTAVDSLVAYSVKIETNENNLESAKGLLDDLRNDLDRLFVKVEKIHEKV

Target: T1, Retinol-binding protein 1 (UniProt P09455)
T1 sequence: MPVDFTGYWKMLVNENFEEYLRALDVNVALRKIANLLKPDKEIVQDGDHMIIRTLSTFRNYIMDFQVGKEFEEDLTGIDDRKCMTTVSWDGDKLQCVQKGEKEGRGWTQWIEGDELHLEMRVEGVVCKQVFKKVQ
Experiment: affinity purification with mass spectrometry; Co-IP followed by MS on the lysate of SCC15 cells transfected with RBP1 or CKAP4

binding: binds
Substance: Cytoskeleton-associated protein 4 (from UniProt Q07065 1-602)
